Results are given in words; binding and its absence hold for the method and conditions named. For some assays here: In cells and extracts the contact can be indirect. Some entries that bind do so weakly or less than the wild type.

Amino acid sequences for entries named in this document (tags omitted).
UniProt P16858: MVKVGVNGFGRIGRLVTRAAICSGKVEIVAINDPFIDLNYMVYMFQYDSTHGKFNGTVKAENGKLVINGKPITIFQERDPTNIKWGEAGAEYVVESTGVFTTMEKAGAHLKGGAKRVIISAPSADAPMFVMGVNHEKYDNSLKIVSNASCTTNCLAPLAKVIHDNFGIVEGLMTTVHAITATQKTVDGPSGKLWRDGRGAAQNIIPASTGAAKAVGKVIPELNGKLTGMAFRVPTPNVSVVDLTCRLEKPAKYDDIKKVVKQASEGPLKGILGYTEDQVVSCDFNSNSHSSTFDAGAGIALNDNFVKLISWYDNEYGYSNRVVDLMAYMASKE
UniProt P52480: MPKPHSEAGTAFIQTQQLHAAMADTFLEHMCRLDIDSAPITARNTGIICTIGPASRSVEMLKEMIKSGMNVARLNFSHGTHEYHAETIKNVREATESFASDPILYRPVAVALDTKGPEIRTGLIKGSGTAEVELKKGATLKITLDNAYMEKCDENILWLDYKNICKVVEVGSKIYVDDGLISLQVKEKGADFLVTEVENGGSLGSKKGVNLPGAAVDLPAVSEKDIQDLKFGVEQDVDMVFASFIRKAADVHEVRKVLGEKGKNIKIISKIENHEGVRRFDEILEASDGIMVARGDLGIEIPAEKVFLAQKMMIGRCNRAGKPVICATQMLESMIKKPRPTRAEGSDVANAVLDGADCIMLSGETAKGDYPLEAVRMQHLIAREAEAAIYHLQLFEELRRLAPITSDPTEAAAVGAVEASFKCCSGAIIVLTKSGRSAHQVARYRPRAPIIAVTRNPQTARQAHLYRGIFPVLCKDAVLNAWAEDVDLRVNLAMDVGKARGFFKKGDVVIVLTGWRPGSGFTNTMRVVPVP

For one substance, binding results are on record in PMC4766697.

Experiment [1] has as its target Glyceraldehyde-3-phosphate dehydrogenase (mouse (endogenous in EAC cells and mouse tissue)) (UniProt P16858). Briefly: co-IP; 3MC induced mouse tumor tissue lysate in modified RIPA buffer (50 mM Tris/HCl pH 8.0, 150 mM NaCl, 1.0 % Nonidet P-40, 4 mM EDTA); primary antibody overnight at 4 °C, protein G agarose 4 h, western blot; GAPDH immunoprecipitation also in the presence of 1 mM MG.

For experiment [2] the target is unchanged. Briefly: co-purification; GAPDH purified from EAC cells by its enzymatic activity up to a DEAE-Sephacell column; eluent run on 7.5-15 % SDS-PAGE, bands identified by MALDI-TOF/TOF and by immunoblot. For orientation: Immunoblotting shows a protein as a band on a membrane.

For “Pyruvate kinase M2 (from UniProt P52480 1-531) (enzyme)”, the binding entry in experiment [1] and in experiment [2] was “binds” each time.
